Laboratory results taken from US20200129495A1 (BioPharmX, Inc., priority 2018, published 2020).
Read-outs that look alike come from different tables or passages of the source.

Columns and labels:
[1] = in vivo; conditions: mouse, skin, topical, 2.5 mg/cm^2
[2] = test system: male C57BL/6J mice; conditions: 2% (w/w) ebastine in ethanol/propylene glycol, topical 2.5 mg/cm^2 daily, 5 weeks; shaved patch
[3] = in vivo; conditions: mouse, plasma, topical, 2.5 mg/cm^2
[4] = Text: Addition of the solvent was repeated until the test material was completely dissolved, resulting in a visually clear solution.

concentration at 5 weeks [1]: 40400 ng/g
concentration at 5 weeks [3]: 2.18 ng/mL
EBASTINE SOLUBILITY AT ROOM TEMP ([4]; Diisopropyl Adipate): 28.7 mg/g
EBASTINE SOLUBILITY AT ROOM TEMP ([4]; Isopropyl Myristate): 21.8 mg/g
Compound: CC(C)(C)c1ccc(C(=O)CCCN2CCC(OC(c3ccccc3)c3ccccc3)CC2)cc1 [Ebastine, 1-[4-(1,1-dimethylethyl)phenyl]-4-[4-(diphenylmethoxy)-1-piperidinyl]-1-butanone]
hair length compared with baseline (non-patch area of non-treated mice) [2]: increased hair length
